PubChem BioAssay AID504793, Drosophila RNAi Screening Center | 2011

Purpose: 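Genes required for cells to halt at G2/M after double-strand DNA breaks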 (primary screen)
System: Drosophila S2R+ cells
Reagent: long dsRNA against Drosophila genes, about 0.25 µg dsRNA per well
Duration: 4 days of dsRNA, then 4 hours of drug before read-out
Challenge: doxorubicin 0.5 µM for 4 hours to cause double-strand breaks, in cells also given a low, harmless dose of dsRNA against nbs to sensitise the assay
Detection: 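Per-well count of mitotic cells stained for phospho-histone H3 after doxorubicin exposure, used as mitotic index; counts are raw and not normalised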
Direction: mitotic cells: higher = more cells in mitosis, weaker G2 arrest
Rule for the call: 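Genes are called active only when high mitotic counts were reproduced with independent dsRNAs and mitosis was checked for delay without damage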
Meaning of the calls: active = confirmed in follow-up tests; inactive = not confirmed
In all, the deposit lists about 23,000 reagents; below is an unselected part of those that have a named target and a result. In the full data, 62 (0.27%) were called active. 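Calls come from follow-up tests whose scores are not deposited, so confirmed genes may have low counts here; counts are not normalised per plate.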 Raw values are not corrected between plates. A plus sign joins genes that one reagent is predicted to hit. Reagent sequences are not shown.

| Target gene | dsRNA | mitotic cells, replicate 1 | mitotic cells, replicate 2 | Call |
| --- | --- | --- | --- | --- |
| loj | DRSC09791 | 6 | – | inactive |
| CG10663 | DRSC09770 | 6 | – | inactive |
| CG5569 | DRSC04514 | 7 | – | inactive |
| SPH93 | DRSC02978 | 3 | – | inactive |
| SCCRO3 | DRSC06359 | 2 | – | inactive |
| SCCRO3 | DRSC26409 | 1 | – | inactive |
| alph | DRSC15398 | 6 | – | inactive |
| alph | DRSC28570 | 6 | – | inactive |
| CG11060 | DRSC06029 | 4 | – | inactive |
| CG34195 | DRSC06909 | 3 | – | inactive |
| Sox15 | DRSC07555 | 17 | – | inactive |
| Sox15 | DRSC28528 | 4 | – | inactive |
| CG8042 | DRSC09676 | 2 | – | inactive |
| CG8042 | DRSC24712 | 8 | – | inactive |
| Boot | DRSC06412 | 5 | – | inactive |
| Bruce | DRSC16015 | 5 | – | inactive |
| Tsp2A | DRSC18584 | 14 | – | inactive |
| CG4911 | DRSC10456 | 10 | – | inactive |
| Spn28F | DRSC03615 | 11 | – | inactive |
| Spn28F | DRSC25759 | 11 | – | inactive |
| CG12506 | DRSC00347 | 5 | – | inactive |
| Nagk | DRSC15994 | 3 | – | inactive |
| Obp44a | DRSC06838 | 5 | – | inactive |
| Obp44a | DRSC26785 | 8 | – | inactive |
| Prp4k | DRSC08144 | 5 | – | inactive |
| Prp4k | DRSC27510 | 2 | – | inactive |
| lola | DRSC05220 | 13 | – | inactive |
| lola | DRSC05221 | 7 | – | inactive |
| lola | DRSC05222 | 10 | – | inactive |
| lola | DRSC05223 | 16 | – | inactive |
| lola | DRSC05224 | 6 | – | inactive |
| lola | DRSC06738 | 4 | – | inactive |
| lola | DRSC06740 | 3 | – | inactive |
| lola | DRSC06741 | 13 | – | inactive |
| lola | DRSC07646 | 9 | – | inactive |
| lola | DRSC07647 | 10 | – | inactive |
| lola | DRSC27862 | 26 | – | inactive |
| CG1463 | DRSC19603 | 8 | – | inactive |
| CG13559 | DRSC04197 | 9 | – | inactive |
| CG10344 | DRSC04066 | 8 | – | inactive |
| CG10344 | DRSC24394 | 4 | – | inactive |
| Bbd | DRSC06709 | 8 | – | inactive |
| CG12713 | DRSC09900 | 6 | – | inactive |
| CG12713 | DRSC24697 | 2 | – | inactive |
| Cht8 | DRSC04546 | 12 | – | inactive |
| CG17325 + CG42305 | DRSC02602 | 8 | – | inactive |
| CG17574 | DRSC06681 | 4 | 14 | inactive |
| sev | DRSC20372 | 12 | – | inactive |

A portion of the results above, for reference:
| Target gene | dsRNA | mitotic cells, replicate 1 | mitotic cells, replicate 2 | Call |
| --- | --- | --- | --- | --- |
| lola | DRSC27862 | 26 | – | inactive |
| CG1463 | DRSC19603 | 8 | – | inactive |
| CG13559 | DRSC04197 | 9 | – | inactive |
| CG10344 | DRSC04066 | 8 | – | inactive |
| CG10344 | DRSC24394 | 4 | – | inactive |
| Bbd | DRSC06709 | 8 | – | inactive |
| CG12713 | DRSC09900 | 6 | – | inactive |
| CG12713 | DRSC24697 | 2 | – | inactive |
| Cht8 | DRSC04546 | 12 | – | inactive |

Continued.
| Target gene | dsRNA | mitotic cells, replicate 1 | mitotic cells, replicate 2 | Call |
| --- | --- | --- | --- | --- |
| Ser | DRSC16856 | 8 | – | inactive |
| Ser | DRSC25494 | 6 | – | inactive |
| I-2 | DRSC11194 | 9 | – | inactive |
| I-2 | DRSC23300 | 7 | – | inactive |
| Med | DRSC25769 | 5 | – | inactive |
| CG9368 | DRSC11067 | 7 | – | inactive |
| CG9368 | DRSC24280 | 5 | – | inactive |
| CG14818 | DRSC18548 | 4 | – | inactive |
| CG14818 | DRSC29496 | 3 | – | inactive |
| gbb | DRSC04687 | 6 | – | inactive |
| gbb | DRSC25717 | 7 | – | inactive |
| Yp2 | DRSC18732 | 8 | – | inactive |
| Yp2 | DRSC29289 | 2 | – | inactive |
| CG13123 | DRSC02219 | 6 | – | inactive |
| CG4610 | DRSC04477 | 7 | – | inactive |
| CG4610 | DRSC22397 | 6 | – | inactive |
| CG4610 | DRSC29602 | 4 | – | inactive |
| CG6729 | DRSC02984 | 12 | – | inactive |
| CG6729 | DRSC22793 | 9 | – | inactive |
| CG6729 | DRSC29961 | 11 | – | inactive |
| ppk24 | DRSC15093 | 11 | – | inactive |
| Nlg2 | DRSC03578 | 8 | – | inactive |
| Nlg2 | DRSC25217 | 2 | – | inactive |
| Cad96Cb | DRSC14243 | 10 | – | inactive |
| Cad96Cb | DRSC14665 | 13 | – | inactive |
| Cad96Cb | DRSC28720 | – | – | inactive |
| CG8927 | DRSC16458 | 9 | – | inactive |
| CG8927 | DRSC25722 | 6 | – | inactive |
